{
  "sequences": {"note": "By UniProt entry, the sequences of proteins in these tests, tags left out. Where a name states a change or a piece, a line headed by the entry shows the natural chain unless it says otherwise.", "UniProt P98086": "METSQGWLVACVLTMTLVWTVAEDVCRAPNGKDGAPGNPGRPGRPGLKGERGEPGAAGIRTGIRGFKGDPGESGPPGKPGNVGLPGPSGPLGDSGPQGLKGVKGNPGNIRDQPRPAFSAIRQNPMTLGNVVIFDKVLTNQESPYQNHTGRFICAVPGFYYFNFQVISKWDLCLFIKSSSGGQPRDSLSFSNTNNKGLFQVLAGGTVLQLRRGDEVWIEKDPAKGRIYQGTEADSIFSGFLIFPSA"},
  "source": "paper PMC12399595",
  "biological_target": "T1, potassium chloride co-transporter 2 (mouse (endogenous in forebrain)) (UniProt Q91V14)",
  "T1 sequence": "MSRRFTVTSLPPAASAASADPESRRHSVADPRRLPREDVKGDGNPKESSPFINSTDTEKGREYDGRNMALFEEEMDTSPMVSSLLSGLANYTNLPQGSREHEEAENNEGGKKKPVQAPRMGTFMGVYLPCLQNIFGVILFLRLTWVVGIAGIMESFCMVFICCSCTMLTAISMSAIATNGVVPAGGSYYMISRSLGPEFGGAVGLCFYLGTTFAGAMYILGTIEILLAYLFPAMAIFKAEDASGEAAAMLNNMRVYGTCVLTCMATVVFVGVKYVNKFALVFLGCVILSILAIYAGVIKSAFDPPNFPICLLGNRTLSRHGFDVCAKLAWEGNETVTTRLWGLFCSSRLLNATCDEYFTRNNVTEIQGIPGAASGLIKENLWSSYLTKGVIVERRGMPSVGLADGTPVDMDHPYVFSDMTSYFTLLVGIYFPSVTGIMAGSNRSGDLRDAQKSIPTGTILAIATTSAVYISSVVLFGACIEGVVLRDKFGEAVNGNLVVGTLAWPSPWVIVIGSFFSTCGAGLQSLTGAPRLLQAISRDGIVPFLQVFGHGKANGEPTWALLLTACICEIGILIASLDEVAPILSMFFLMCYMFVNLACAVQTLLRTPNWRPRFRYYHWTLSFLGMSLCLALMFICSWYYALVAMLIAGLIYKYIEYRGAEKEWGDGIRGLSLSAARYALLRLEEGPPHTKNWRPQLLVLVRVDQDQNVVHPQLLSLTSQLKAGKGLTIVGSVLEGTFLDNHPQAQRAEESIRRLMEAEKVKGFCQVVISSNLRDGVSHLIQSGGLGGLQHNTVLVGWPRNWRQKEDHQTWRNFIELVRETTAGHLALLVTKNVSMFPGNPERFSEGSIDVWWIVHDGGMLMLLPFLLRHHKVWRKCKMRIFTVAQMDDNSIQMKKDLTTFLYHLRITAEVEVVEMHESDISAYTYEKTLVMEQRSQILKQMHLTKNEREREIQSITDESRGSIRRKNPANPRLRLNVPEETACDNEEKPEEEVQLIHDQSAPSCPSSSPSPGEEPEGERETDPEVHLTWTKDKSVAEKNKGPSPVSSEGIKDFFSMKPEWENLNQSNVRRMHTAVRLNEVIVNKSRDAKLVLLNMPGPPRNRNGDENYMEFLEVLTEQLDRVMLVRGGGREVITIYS",
  "test": "co-IP; KCC2 immunoprecipitated (anti-KCC2 cross-linked to protein G dynabeads, overnight at 4°C) from forebrain plasma membrane fractions of 8-12-week-old mice in Triton lysis buffer (150 mM NaCl, 10 mM Tris, 0.5% Triton X-100, pH 7.5); soft elution; resolved by BN-PAGE and blotted for C1q; n = 1 cohort of 7 animals merged",
  "note": "No constants are given. Whether binding was seen depends on the method and setting. Binding seen in cells or lysates may run through a third protein. Some entries that bind do so weakly or less than the wild type.",
  "data": [
    {"substance": "complement C1q (from UniProt P98086 23-245; P14106 26-253; Q02105 30-246) (complex)", "values": [
      {"measurement": "binding", "result": "binds"}
    ]}
  ]
}
